For at least one compound, name, drawing or mass did not settle the structure.
What was measured:
BTK [1] = biological target: T1, BTK (Homo sapiens, UniProt Q06187); test: Degradation of BTK protein in Namalwa cells (Western blot; DC50, Dmax); conditions: Namalwa B lymphocyte cells, various concentrations, 24 hours
BTK [2] = biological target: T1, BTK; test: Degradation of BTK protein in Mino cells (Western blot; DC50, Dmax); conditions: Mino mantle cell lymphoma cells, various concentrations, 24 hours
BTK [3] = biological target: T1, BTK; test: Degradation of BTK protein in JeKo-1 cells (Western blot; DC50, Dmax); conditions: JeKo-1 mantle cell lymphoma cells, various concentrations, 24 hours

The chains behind the UniProt entries cited, without tags or fusion partners. Where a name states a change or a piece, a line headed by the entry shows the natural chain unless it says otherwise.
UniProt Q06187: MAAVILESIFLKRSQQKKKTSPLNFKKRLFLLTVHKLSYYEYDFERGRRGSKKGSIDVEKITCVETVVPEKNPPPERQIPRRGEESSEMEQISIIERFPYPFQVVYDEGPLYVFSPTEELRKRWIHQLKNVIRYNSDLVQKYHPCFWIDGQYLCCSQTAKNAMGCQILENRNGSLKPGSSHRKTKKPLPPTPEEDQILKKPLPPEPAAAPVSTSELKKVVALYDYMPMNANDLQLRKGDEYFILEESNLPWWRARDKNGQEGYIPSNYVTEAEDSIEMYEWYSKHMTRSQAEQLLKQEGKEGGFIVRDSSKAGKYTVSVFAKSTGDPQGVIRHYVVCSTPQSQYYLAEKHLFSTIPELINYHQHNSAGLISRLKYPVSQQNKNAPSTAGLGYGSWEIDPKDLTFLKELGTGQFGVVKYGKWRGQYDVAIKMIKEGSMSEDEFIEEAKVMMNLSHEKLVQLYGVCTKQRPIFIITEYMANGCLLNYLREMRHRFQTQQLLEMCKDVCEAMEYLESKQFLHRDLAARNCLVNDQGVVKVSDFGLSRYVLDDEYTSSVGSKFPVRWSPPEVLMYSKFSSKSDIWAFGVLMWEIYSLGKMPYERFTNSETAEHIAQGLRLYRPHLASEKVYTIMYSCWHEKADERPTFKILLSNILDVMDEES

Measured: degradation of BTK protein

Nc1ncnc2c1c(-c1ccc(Oc3ccccc3)cc1)nn2C1CCN(CC2CCN(CCCC(=O)N3CCC(c4ccc5c(c4)CN(C4CCC(=O)NC4=O)C5=O)CC3)CC2)CC1 (stereo not drawn) [Compound 422, 3-(5-(1-(4-(4-((4-(4-amino-3-(4-phenoxyphenyl)-1H-pyrazolo(3,4-d)pyrimidin-1-yl)piperidin-1-yl)methyl)piperidin-1-yl)butanoyl)piperidin-4-yl)-1-oxoisoindolin-2-yl)piperidine-2,6-dione]
dose-dependent degradation: all assays above

Source: US12139492B2 (Endotarget Inc., priority 2021, dated 2024)
